Measured values taken from paper PMC6680050.
These are yes or no findings as the source states them, for the method shown. In cells and extracts the contact can be indirect. Some binding calls cover weakened binding; strength is not graded here. Tags and fused reporters may be left off the sequences shown.

Target: T1, His-ULK1-FL (full length) (UniProt O75385)
T1 sequence: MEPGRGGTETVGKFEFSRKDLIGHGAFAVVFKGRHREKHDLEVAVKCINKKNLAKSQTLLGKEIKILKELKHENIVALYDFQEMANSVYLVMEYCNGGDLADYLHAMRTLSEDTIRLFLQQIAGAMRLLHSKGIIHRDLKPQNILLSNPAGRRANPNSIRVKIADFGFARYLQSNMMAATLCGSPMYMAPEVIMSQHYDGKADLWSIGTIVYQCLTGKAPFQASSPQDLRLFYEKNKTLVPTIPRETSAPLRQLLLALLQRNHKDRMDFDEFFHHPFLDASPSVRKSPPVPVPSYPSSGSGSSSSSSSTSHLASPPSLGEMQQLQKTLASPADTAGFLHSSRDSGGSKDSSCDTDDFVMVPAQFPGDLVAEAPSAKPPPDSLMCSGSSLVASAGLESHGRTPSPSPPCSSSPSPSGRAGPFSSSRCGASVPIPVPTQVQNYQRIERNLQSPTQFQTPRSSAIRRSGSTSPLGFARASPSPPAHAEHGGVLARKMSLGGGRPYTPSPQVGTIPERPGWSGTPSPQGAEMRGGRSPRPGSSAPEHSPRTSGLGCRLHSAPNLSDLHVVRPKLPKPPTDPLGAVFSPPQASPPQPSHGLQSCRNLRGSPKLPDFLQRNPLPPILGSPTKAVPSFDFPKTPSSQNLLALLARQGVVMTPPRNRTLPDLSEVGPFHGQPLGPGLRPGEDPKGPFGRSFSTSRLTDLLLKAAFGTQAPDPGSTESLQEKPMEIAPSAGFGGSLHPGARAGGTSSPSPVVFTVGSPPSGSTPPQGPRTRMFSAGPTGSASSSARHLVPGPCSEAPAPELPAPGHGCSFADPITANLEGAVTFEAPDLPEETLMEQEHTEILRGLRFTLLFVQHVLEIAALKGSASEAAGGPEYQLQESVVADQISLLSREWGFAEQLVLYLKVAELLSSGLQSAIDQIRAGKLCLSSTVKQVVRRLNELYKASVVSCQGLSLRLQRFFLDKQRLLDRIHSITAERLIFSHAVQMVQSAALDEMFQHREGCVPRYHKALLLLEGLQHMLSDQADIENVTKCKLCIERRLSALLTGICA
Assay: pull-down; His-ULK1-FL/KD/SPR/CTD on Ni-NTA beads mixed with H4 cell lysate; resin from empty-vector cells as negative control; TOPK detected by western blot; only the target purified

binding: binds
B1: endogenous TOPK of H4 cells (enzyme, UniProt Q96KB5 1-322)
chain: MEGISNFKTPSKLSEKKKSVLCSTPTINIPASPFMQKLGFGTGVNVYLMKRSPRGLSHSPWAVKKINPICNDHYRSVYQKRLMDEAKILKSLHHPNIVGYRAFTEANDGSLCLAMEYGGEKSLNDLIEERYKASQDPFPAAIILKVALNMARGLKYLHQEKKLLHGDIKSSNVVIKGDFETIKICDVGVSLPLDENMTVTDPEACYIGTEPWKPKEAVEENGVITDKADIFAFGLTLWEMMTLSIPHINLSNDDDDEDKTFDESDFDDEAYYAALGTRPPINMEELDESYQKVIELFSVCTNEDPKDRPSAAHIVEALETDV
